Measured values reported in patent publication US20070004909A1.
These are yes or no findings as the source states them, for the method shown. Some binding calls cover weakened binding; strength is not graded here.

By UniProt entry, the sequences of proteins in these tests, tags left out. Residues count along the entry.
UniProt P31994, residues 43-217: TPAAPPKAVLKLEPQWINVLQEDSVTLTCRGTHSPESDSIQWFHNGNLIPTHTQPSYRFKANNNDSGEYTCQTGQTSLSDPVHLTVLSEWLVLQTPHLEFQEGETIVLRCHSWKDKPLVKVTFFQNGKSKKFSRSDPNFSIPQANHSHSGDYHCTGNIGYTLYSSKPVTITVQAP

How the values were obtained:
sCD32B-Ig [1] = target: sCD32B-Ig (UniProt P31994); assay: sandwich ELISA of purified product: CD32B coated, HRP-conjugated CD16A probe; compared with constructs 1 and 2
sCD32B-Ig [2] = target: sCD32B-Ig (UniProt P31994); assay: sandwich ELISA; compared with the CBD of constructs 1 and 2 (summary of Example 6.4)
sCD32B-Ig [3] = target: sCD32B-Ig (UniProt P31994); assay: sandwich ELISA: sCD32B coated on the plate (figure legend), purified diabody diluted 1:25 to 1:100, HRP-conjugated sCD16A as the probe; OD450
sCD32B-Ig [4] = target: sCD32B-Ig (UniProt P31994); assay: sandwich ELISA: CD32B coated, HRP-conjugated CD16A probe
sCD32B-Ig [5] = target: sCD32B-Ig (UniProt P31994); assay: sandwich ELISA: sCD32B-Ig coated, diabody, sCD16A-biotin + streptavidin-HRP
sCD32B-Ig [6] = target: sCD32B-Ig (UniProt P31994); assay: sandwich ELISA: sCD32B-Ig coated on the plate, diabody titrated, detected with labelled sCD16A; OD450

Measured: binding

B1: covalent bispecific diabody of constructs 15 and 16 (pMGX0752+pMGX0753) (bispecific antibody)
chain 1: EIVLTQSPDFQSVTPKEKVTFTCRTSQSIGTNIHWYQQKPDQSPKLLIKEVSESISGVPSRFSGSGSGTDFTLTINSLEAEDAATYYCQQSNTWPFTFGGGTKVEIKGGGSGGGGQVTLRESGPALVKPTQTLTLTCTFSGFSLSTSGMGVGWIRQPPGKALEWLAHIWWDDDKRYNPALKSRLTISKDTSKNQVVLTMTNMDPVDTATYYCAQINPAWFAYWGQGTLVTVSSFNRGEC
chain 2: DIVMTQSPDSLAVSLGERATINCKASQSVDFDGDSFMNWYQQKPGQPPKLLIYTTSNLESGVPDRFSGSGSGTDFTLTISSLQAEDVAVYYCQQSNEDPYTFGQGTKLEIKGGGSGGGGQVQLVQSGAEVKKPGASVKVSCKASGYTFTNYWIHWVRQAPGQGLEWIGVIDPSDTYPNYNKKFKGRVTMTVVVSTSTAYMELRSLRSDDTAVYYCARNGDSDYYSGMDYWGQGTTVTVSSVEPKSC
binds: sCD32B-Ig [1] | sCD32B-Ig [2] | sCD32B-Ig [3]

B2: h2B6-h3G8 covalent bispecific diabody (CBD) (bispecific antibody)
chain 1: EIVLTQSPDFQSVTPKEKVTFTCRTSQSIGTNIHWYQQKPDQSPKLLIKEVSESISGVPSRFSGSGSGTDFTLTINSLEAEDAATYYCQQSNTWPFTFGGGTKVEIKGGGSGGGGQVTLRESGPALVKPTQTLTLTCTFSGFSLSTSGMGVGWIRQPPGKALEWLAHIWWDDDKRYNPALKSRLTISKDTSKNQVVLTMTNMDPVDTATYYCAQINPAWFAYWGQGTLVTVSSLGGC
chain 2: DIVMTQSPDSLAVSLGERATINCKASQSVDFDGDSFMNWYQQKPGQPPKLLIYTTSNLESGVPDRFSGSGSGTDFTLTISSLQAEDVAVYYCQQSNEDPYTFGQGTKLEIKGGGSGGGGQVQLVQSGAEVKKPGASVKVSCKASGYTFTNYWIHWVRQAPGQGLEWIGVIDPSDTYPNYNKKFKGRVTMTVVVSTSTAYMELRSLRSDDTAVYYCARNGDSDYYSGMDYWGQGTTVTVSSLGGC
binds: sCD32B-Ig [4] | sCD32B-Ig [5] | sCD32B-Ig [6] | sCD32B-Ig [3]
